Laboratory results: PubChem BioAssay AID493246 (Drosophila RNAi Screening Center, 2011)
The deposit covers about 21,000 reagents; shown is an unselected part of those with a known target gene and a result. Over the whole deposit, 429 (2%) got an active call. 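Values are raw and not normalised between plates; calls rest on per-plate z-scores that were not deposited.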 Names joined by + are all predicted targets of the reagent. The record does not give: the amount of reagent, the time to read-out.

- Test: 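Genome-wide search for dsRNAs that reduce cell number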 (primary screen)
- System: Drosophila Kc and S2R+ cells
- Knock-down reagent: long dsRNA against Drosophila genes
- Read-out: 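Cell number per well after knock-down, printed as raw plate values; calls were based on per-plate z-scores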
- Direction: Kc cell number and S2R+ cell number: higher = more cells remaining
- Call rule: 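Counted as a hit if cell number falls by a z-score of at least 3 within its plate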

The opening 2 entries, ahead of the listing:
sno → Kc cell number, rep 1 = 5.64e5; S2R+ cell number, rep 1 = 8.95e5; Outcome = inactive
CG13982 → Kc cell number, rep 1 = 1.52e6; Kc cell number, rep 2 = 1.27e6; S2R+ cell number, rep 1 = 1.07e6; S2R+ cell number, rep 2 = 1.20e6; Outcome = inactive

The list itself, repeating the preview:
sno → Kc cell number, rep 1 = 5.64e5; S2R+ cell number, rep 1 = 8.95e5; Outcome = inactive
CG13982 → Kc cell number, rep 1 = 1.52e6; Kc cell number, rep 2 = 1.27e6; S2R+ cell number, rep 1 = 1.07e6; S2R+ cell number, rep 2 = 1.20e6; Outcome = inactive
Obp50c + Obp50b → Kc cell number, rep 1 = 1.52e6; Kc cell number, rep 2 = 1.52e6; S2R+ cell number, rep 1 = 1.03e6; S2R+ cell number, rep 2 = 1.15e6; Outcome = inactive
CG34337 → Kc cell number, rep 1 = 1.62e6; Kc cell number, rep 2 = 1.58e6; S2R+ cell number, rep 1 = 1.11e6; S2R+ cell number, rep 2 = 1.22e6; Outcome = inactive
mtDNA-helicase → Kc cell number, rep 1 = 1.65e6; Kc cell number, rep 2 = 1.60e6; S2R+ cell number, rep 1 = 1.33e6; S2R+ cell number, rep 2 = 1.48e6; Outcome = inactive
Or49a → Kc cell number, rep 1 = 1.51e6; Kc cell number, rep 2 = 1.53e6; S2R+ cell number, rep 1 = 1.18e6; S2R+ cell number, rep 2 = 1.30e6; Outcome = inactive
CG11723 → Kc cell number, rep 1 = 1.28e6; Kc cell number, rep 2 = 1.21e6; S2R+ cell number, rep 1 = 8.37e5; S2R+ cell number, rep 2 = 7.46e5; Outcome = inactive
Tango1 → Kc cell number, rep 1 = 1.14e6; Kc cell number, rep 2 = 1.35e6; S2R+ cell number, rep 1 = 5.14e5; S2R+ cell number, rep 2 = 5.41e5; Outcome = inactive
CG9192 → Kc cell number, rep 1 = 1.25e6; Kc cell number, rep 2 = 1.35e6; S2R+ cell number, rep 1 = 9.68e5; S2R+ cell number, rep 2 = 1.17e6; Outcome = inactive
CG8541 → Kc cell number, rep 1 = 1.20e6; Kc cell number, rep 2 = 1.31e6; S2R+ cell number, rep 1 = 1.13e6; S2R+ cell number, rep 2 = 1.10e6; Outcome = inactive
CG9095 → Kc cell number, rep 1 = 1.47e6; Kc cell number, rep 2 = 1.47e6; S2R+ cell number, rep 1 = 1.20e6; S2R+ cell number, rep 2 = 1.29e6; Outcome = inactive
CG30384 → Kc cell number, rep 1 = 1.74e6; Kc cell number, rep 2 = 1.74e6; S2R+ cell number, rep 1 = 1.33e6; S2R+ cell number, rep 2 = 1.49e6; Outcome = inactive
CG31041 → Kc cell number, rep 1 = 1.02e6; Kc cell number, rep 2 = 1.51e6; S2R+ cell number, rep 1 = 1.13e6; S2R+ cell number, rep 2 = 1.08e6; Outcome = inactive
CG6739 → Kc cell number, rep 1 = 1.69e6; Kc cell number, rep 2 = 1.64e6; S2R+ cell number, rep 1 = 1.22e6; S2R+ cell number, rep 2 = 1.45e6; Outcome = inactive
